Measurements taken from PubChem BioAssay AID540276 (National Center for Advancing Translational Sciences (NCATS), 2011).
Out of some 300,000 compounds screened, about 5,400 (1.8%) were called active. This list was built around the results that the source calls inconclusive (neither active nor inactive); the mix of calls is not that of the screen. The call rests on the fitted dose curve; tested in HEK293 cells. A potency beside an inconclusive call is a rough fit, not a confirmed value.

assay: qHTS for inhibitors of binding or entry into cells for Marburg Virus; conditions: Marburg virus pseudotyped entry inhibition, cell reporter; activity change, negative = inhibition: at 37.8 µM (top of the series) unless noted
On the % scale 0 is the no-effect control and ±100 the full control effect; potency means the concentration at half of the fitted maximal effect.

Row | SMILES | Potency | activity change, negative = inhibition
1 | O=[N+]([O-])c1ccc2c(c1)Cc1cc(O)ccc1-2 | inconclusive: 6.31 µM [activator, partial curve] | 
2 | O=C(NNc1ccnc2cc(Cl)ccc12)C1CCCCC1 | inconclusive: 0.316 µM [inhibitor, full curve, poor fit] | 
3 | Cc1cc(C(=O)COC(=O)c2cccc(NS(C)(=O)=O)c2)c(C)n1CC1CCCO1 (centres undefined) | active: 5.62 µM | 
4 | C/C(=N\N1CCCCCC1)c1c(O)n(-c2ccc(C)cc2)c(=O)[nH]c1=O | inconclusive: 9.2 µM [activator, partial curve, poor fit] | 
5 | NC(=O)NC(CC(=O)Nc1cccnc1)c1cccc(Br)c1 (centres undefined) |  | inactive: 9.01% [at 46.1 µM]
6 | Cc1nc(NC(C)c2ccccc2)sc1C(=O)Nc1ccccc1 (centres undefined) |  | inactive: -32.6%
7 | CC(C)C[C@H](NC(=O)OC(C)(C)C)C(=O)N/N=C/c1ccc2nccnc2c1 | inconclusive: 20.6 µM [inhibitor, partial curve, poor fit] | 
8 | O=C(Nc1cccc(S(=O)(=O)Nc2ccccc2Cl)c1)c1ccc(Cl)nc1 | inconclusive: 5.01 µM [inhibitor, partial curve] | 
9 | CCC(CC)=NNC(=O)c1ccccc1OCc1ccc(F)cc1 |  | inactive: 0.271%
10 | O=C(Cn1ccccc1=S)c1ccc(Cl)c(Cl)c1 |  | inactive: 5.06% [at 46.1 µM]
11 | Cc1ccc(NC(=O)C(=O)c2ccc(C)cc2)cc1 | inconclusive: 0.562 µM [activator, partial curve, poor fit] | 
12 | CCOc1ccc(NS(=O)(=O)c2ccc(C(=O)N3CCCC(C)C3)cc2)cc1 (centres undefined) | inconclusive: 10 µM [inhibitor, partial curve, poor fit] | 
13 | Cc1nnc(SCC2=C(C(=O)O)N3C(=O)C(NC(=O)Cn4nc(C(F)F)c(Cl)c4C)C3SC2)s1 (centres undefined) |  | inactive: -17.8% [at 46.1 µM]
14 | COC(=O)Nc1ccc(S(=O)(=O)N2CCCc3ccccc32)cc1 | inconclusive: 1.16 µM [inhibitor, full curve, poor fit] | 
15 | CCN1CCN(CCOc2cccc(Cl)c2Cl)CC1 | inconclusive: 29.1 µM [inhibitor, single point] | 
16 | Cc1ccc(NC(=O)CN(C)C(=O)CSc2nc3ccccc3c(=O)n2Cc2ccco2)cc1 | inconclusive: 25.1 µM [inhibitor, single point] | 
17 | CS(=O)(=O)N1CCCC(C(=O)Nc2ccccc2)C1 (centres undefined) | inconclusive: 1.26 µM [activator, single point] | 
18 | O=[N+]([O-])c1ccc(Oc2ccc(S(=O)(=O)N3CCOCC3)cc2)cc1 | inconclusive: 6.31 µM [inhibitor, partial curve, poor fit] | 
19 | CCN(CC)C(=O)c1ccc(COc2ccc(Cl)c(C)c2)o1 | inconclusive: 35.5 µM [inhibitor, single point] | 
20 | Cc1cccc(NC(=O)Nc2cccc(C)n2)n1 |  | inactive: 1.98% [at 46.1 µM]
21 | O=C(O)c1ccc2c(=O)[nH]c(CN3CCOCC3)nc2c1 |  | inactive: -2.11%
22 | CCN(CC)c1nc(N2CCN(C)CC2)nc2ccccc12 | inconclusive: 35.5 µM [inhibitor, single point] | 

Sorted by molecular weight (falling): three of the compounds above.
Row | SMILES | Potency | activity change, negative = inhibition
5 | NC(=O)NC(CC(=O)Nc1cccnc1)c1cccc(Br)c1 (centres undefined) |  | inactive: 9.01% [at 46.1 µM]
15 | CCN1CCN(CCOc2cccc(Cl)c2Cl)CC1 | inconclusive: 29.1 µM [inhibitor, single point] | 
11 | Cc1ccc(NC(=O)C(=O)c2ccc(C)cc2)cc1 | inconclusive: 0.562 µM [activator, partial curve, poor fit] | 

More structures

Row | SMILES | Potency | activity change, negative = inhibition
23 | O=C(Nc1ccc(N2CCN(C(=O)c3ccccc3)CC2)cc1)c1ccc2c(c1)OCCO2 | inconclusive: 17.8 µM [inhibitor, single point] | 
24 | CCCCNC(=O)CN(c1ccc(Cl)c(Cl)c1)S(C)(=O)=O | inconclusive: 0.366 µM [inhibitor, full curve, poor fit] | 
25 | CCOC(=O)c1cc(-c2ccccc2)sc1NC(=O)C(C)OC(=O)c1cccnc1Cl (centres undefined) | inconclusive: 0.112 µM [activator, full curve, poor fit] | 
26 | CNC(=O)c1c(NC(=O)CCS(=O)(=O)c2ccccc2)sc2c1CCN(C(=O)OC)C2 |  | inactive: 21.6%
27 | CN(C)C/C=C(/c1ccc(Br)cc1)c1cccnc1 | active: 7.08 µM | 
28 | C/C=C/c1ccc(OCCCNC)c(OC)c1 | inconclusive: 16.4 µM [inhibitor, partial curve, poor fit] | 
29 | O=S(=O)(c1cccs1)N1CCN(c2ccc(F)cc2)CC1 | inconclusive: 6.31 µM [inhibitor, partial curve] | 
30 | Cc1ccc(S(=O)(=O)NC(CC(=O)NCc2ccco2)c2ccco2)cc1 (centres undefined) | inconclusive: 6.31 µM [activator, partial curve, poor fit] | 
31 | Cn1c(SCC(=O)N2CCCc3ccccc32)nnc1-c1ccco1 | inconclusive: 14.1 µM [inhibitor, partial curve, poor fit] | 
32 | COc1ccccc1NC(=O)CN1C(=O)c2cccc3cccc1c23 | inconclusive: 2.51 µM [inhibitor, full curve, poor fit] | 
33 | COc1ccc(/C=C/C(=O)NC(=S)NNC(=O)c2cccnc2)cc1 | inconclusive: 35.5 µM [inhibitor, single point] | 
34 | Cc1cccc(-c2c3c(=O)n(C)c(=O)n(C)c3cn2C2CCCCC2)c1 | inconclusive: 23.1 µM [inhibitor, partial curve] | 
35 | CCN(CC)c1ccc(NC(=O)Nc2ccc(C(C)=O)cc2)cc1 | inconclusive: 5.62 µM [activator, single point] | 
36 | C=C(C)COc1ccc2c(C)c(CC(=O)OC)c(=O)oc2c1C |  | inactive: -12.2%
37 | COc1ccccc1N(CC(=O)Nc1ccccc1F)S(C)(=O)=O |  | inactive: -5.63% [at 46.1 µM]
38 | Cc1cc(O)c(C2=Nc3ccccc3SC(c3ccc(Cl)cc3)C2)c(=O)o1 (centres undefined) | inconclusive: 5.62 µM [inhibitor, single point] | 
39 | Cc1cc(Cl)c(S(=O)(=O)NCc2cccnc2)cc1OCC(=O)NC1CCCCC1 |  | inactive: 18.6%
40 | O=C(Nc1ccccc1)N(Cc1ccc(Cl)cc1)CC(O)C(F)(F)F (centres undefined) | inconclusive: 35.5 µM [activator, single point] | 
41 | N#Cc1cnn(-c2ccccc2)c1N |  | inactive: 11.5%
42 | COc1cc2c(cc1OC)C(C)N(C(=O)c1cc3c(s1)-c1ccccc1OC3)CC2 (centres undefined) |  | inactive: 1.02%
43 | Cc1cccc(CN2C(=O)CC(c3ccc(Cl)cc3)c3c(C)nn(-c4nc(C)cc(C)n4)c32)c1 (centres undefined) | inconclusive: 35.5 µM [inhibitor, single point] | 
44 | Cc1cc(=O)oc2cc(Oc3ccc([N+](=O)[O-])cc3[N+](=O)[O-])ccc12 | inconclusive: 20 µM [inhibitor, single point] | 
